Reference: paper PMC12591160, “Polyadenylation Complex CFII Recognizes Downstream Cis‐element for Pre‐mRNA Polyadenylation Through Interaction with an RNA‐Binding Protein in Arabidopsis”
These are yes or no findings as the source states them, for the method shown. For part of these data: In cells and extracts the contact can be indirect. Some entries that bind do so weakly or less than the wild type. Where a sequence is shown, tags or fusion partners need not be part of it. Each block holds one binder with its values, some of them ahead of it.

Tests used:
[1] = biological target: T1, PCFS4-MYC (PCFS4 with 12× MYC, native promoter, in PCFS4-MYCres transgenic plants) (Arabidopsis thaliana) (UniProt Q0WPF2); test: co-IP; total protein extracts of 12-day-old transgenic Arabidopsis plants (PCFS4-MYC or CLPS3-FLAG; wild type as control) on anti-MYC or anti-FLAG M2 magnetic beads, 2 h at 4 °C, 150 mM NaCl, 0.1% Triton X-100, pH 7.4; blots with the indicated antibodies
T1 sequence: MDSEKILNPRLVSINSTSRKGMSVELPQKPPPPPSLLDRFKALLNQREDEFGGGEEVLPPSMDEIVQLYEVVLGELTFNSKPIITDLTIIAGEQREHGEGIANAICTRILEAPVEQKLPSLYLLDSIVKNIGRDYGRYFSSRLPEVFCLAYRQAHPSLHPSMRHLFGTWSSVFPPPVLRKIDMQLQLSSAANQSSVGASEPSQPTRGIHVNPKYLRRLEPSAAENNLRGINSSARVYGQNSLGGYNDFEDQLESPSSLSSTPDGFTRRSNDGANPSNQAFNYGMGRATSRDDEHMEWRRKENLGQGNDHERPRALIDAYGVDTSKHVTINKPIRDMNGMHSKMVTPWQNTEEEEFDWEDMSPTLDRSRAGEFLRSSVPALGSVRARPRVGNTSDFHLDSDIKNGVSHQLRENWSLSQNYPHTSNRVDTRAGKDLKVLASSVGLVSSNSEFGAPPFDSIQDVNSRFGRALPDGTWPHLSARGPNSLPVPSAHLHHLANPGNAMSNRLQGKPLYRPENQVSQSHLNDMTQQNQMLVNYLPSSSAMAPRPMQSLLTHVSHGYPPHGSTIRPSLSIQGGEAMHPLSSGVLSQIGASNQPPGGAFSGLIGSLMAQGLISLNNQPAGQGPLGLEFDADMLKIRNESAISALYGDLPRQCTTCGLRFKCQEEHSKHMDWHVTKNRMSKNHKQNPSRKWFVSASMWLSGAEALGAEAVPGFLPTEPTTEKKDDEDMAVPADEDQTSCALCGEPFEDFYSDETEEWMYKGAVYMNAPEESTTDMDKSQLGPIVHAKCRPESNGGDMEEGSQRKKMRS

[2] = biological target: T2, FPA, full length, yeast two-hybrid fusion (Arabidopsis thaliana) (UniProt Q8LPQ9); test: two-hybrid; two plasmids (AD, BD) co-transformed into yeast strain AH109; growth on SD/-LWHA; full-length and truncated FPA and PCFS4
T2 sequence: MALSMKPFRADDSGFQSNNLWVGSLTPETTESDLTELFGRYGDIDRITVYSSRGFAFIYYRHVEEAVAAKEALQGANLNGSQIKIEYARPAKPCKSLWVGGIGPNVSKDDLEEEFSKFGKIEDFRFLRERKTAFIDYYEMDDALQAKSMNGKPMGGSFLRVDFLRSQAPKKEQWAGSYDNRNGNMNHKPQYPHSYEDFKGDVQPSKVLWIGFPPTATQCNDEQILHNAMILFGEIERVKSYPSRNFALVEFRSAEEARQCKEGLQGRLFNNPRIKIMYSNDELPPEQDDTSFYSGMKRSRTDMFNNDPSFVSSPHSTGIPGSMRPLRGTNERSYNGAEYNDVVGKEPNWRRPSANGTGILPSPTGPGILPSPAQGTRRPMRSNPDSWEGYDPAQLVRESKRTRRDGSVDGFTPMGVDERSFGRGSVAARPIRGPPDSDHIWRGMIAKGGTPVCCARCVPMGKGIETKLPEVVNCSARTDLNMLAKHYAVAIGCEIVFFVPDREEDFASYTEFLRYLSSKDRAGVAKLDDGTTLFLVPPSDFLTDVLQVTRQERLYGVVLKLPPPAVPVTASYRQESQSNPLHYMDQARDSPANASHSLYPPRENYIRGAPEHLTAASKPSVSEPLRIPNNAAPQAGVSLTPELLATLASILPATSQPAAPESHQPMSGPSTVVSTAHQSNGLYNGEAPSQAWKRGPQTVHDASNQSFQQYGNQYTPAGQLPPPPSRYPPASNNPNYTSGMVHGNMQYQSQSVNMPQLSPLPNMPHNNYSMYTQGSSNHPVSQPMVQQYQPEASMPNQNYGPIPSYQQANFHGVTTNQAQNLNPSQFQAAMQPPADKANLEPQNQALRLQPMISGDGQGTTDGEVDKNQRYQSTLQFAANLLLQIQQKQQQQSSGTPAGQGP

[3] = biological target: T3, FPA with a FLAG tag, expressed in Arabidopsis protoplasts (Arabidopsis thaliana) (UniProt Q8LPQ9); test: co-IP; proteins expressed in Arabidopsis protoplasts; immunoprecipitated with anti-FLAG M2 magnetic beads, 2 h at 4 °C; lysis buffer 50 mM phosphate pH 7.4, 150 mM NaCl, 0.2% Triton X-100, 10% glycerol; blots with anti-FLAG and anti-MYC
T3 sequence: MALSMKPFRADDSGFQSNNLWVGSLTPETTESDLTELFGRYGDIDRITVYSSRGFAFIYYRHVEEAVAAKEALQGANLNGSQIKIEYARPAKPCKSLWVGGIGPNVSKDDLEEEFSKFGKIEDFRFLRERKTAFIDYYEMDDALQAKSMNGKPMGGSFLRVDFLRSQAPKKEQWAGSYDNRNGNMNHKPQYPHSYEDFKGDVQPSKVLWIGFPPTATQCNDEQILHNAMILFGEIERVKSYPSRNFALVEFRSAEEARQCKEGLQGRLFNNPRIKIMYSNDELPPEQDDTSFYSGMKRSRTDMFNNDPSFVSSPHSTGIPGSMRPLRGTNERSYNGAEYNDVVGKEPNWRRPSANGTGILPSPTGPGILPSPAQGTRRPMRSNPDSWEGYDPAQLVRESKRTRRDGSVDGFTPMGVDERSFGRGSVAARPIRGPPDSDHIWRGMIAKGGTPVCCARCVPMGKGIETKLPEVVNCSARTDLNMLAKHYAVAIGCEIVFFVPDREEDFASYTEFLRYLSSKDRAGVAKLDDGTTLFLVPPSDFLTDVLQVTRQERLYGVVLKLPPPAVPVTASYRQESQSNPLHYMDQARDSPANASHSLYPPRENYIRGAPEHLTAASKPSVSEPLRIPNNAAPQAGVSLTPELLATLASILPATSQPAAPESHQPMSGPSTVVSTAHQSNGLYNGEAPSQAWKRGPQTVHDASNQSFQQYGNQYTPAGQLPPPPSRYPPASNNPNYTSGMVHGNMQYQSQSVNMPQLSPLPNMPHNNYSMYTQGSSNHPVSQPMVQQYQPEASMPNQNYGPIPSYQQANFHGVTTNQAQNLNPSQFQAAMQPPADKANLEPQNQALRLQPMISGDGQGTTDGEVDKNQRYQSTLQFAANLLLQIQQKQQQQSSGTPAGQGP

binding [1]: binds
B1: FPA (endogenous, Arabidopsis plants) (protein, UniProt Q8LPQ9 1-901)
chain: MALSMKPFRADDSGFQSNNLWVGSLTPETTESDLTELFGRYGDIDRITVYSSRGFAFIYYRHVEEAVAAKEALQGANLNGSQIKIEYARPAKPCKSLWVGGIGPNVSKDDLEEEFSKFGKIEDFRFLRERKTAFIDYYEMDDALQAKSMNGKPMGGSFLRVDFLRSQAPKKEQWAGSYDNRNGNMNHKPQYPHSYEDFKGDVQPSKVLWIGFPPTATQCNDEQILHNAMILFGEIERVKSYPSRNFALVEFRSAEEARQCKEGLQGRLFNNPRIKIMYSNDELPPEQDDTSFYSGMKRSRTDMFNNDPSFVSSPHSTGIPGSMRPLRGTNERSYNGAEYNDVVGKEPNWRRPSANGTGILPSPTGPGILPSPAQGTRRPMRSNPDSWEGYDPAQLVRESKRTRRDGSVDGFTPMGVDERSFGRGSVAARPIRGPPDSDHIWRGMIAKGGTPVCCARCVPMGKGIETKLPEVVNCSARTDLNMLAKHYAVAIGCEIVFFVPDREEDFASYTEFLRYLSSKDRAGVAKLDDGTTLFLVPPSDFLTDVLQVTRQERLYGVVLKLPPPAVPVTASYRQESQSNPLHYMDQARDSPANASHSLYPPRENYIRGAPEHLTAASKPSVSEPLRIPNNAAPQAGVSLTPELLATLASILPATSQPAAPESHQPMSGPSTVVSTAHQSNGLYNGEAPSQAWKRGPQTVHDASNQSFQQYGNQYTPAGQLPPPPSRYPPASNNPNYTSGMVHGNMQYQSQSVNMPQLSPLPNMPHNNYSMYTQGSSNHPVSQPMVQQYQPEASMPNQNYGPIPSYQQANFHGVTTNQAQNLNPSQFQAAMQPPADKANLEPQNQALRLQPMISGDGQGTTDGEVDKNQRYQSTLQFAANLLLQIQQKQQQQSSGTPAGQGP

binding [2]: binds
B2: PCFS4, full length, yeast two-hybrid fusion (protein, UniProt Q0WPF2 1-808)
chain: MDSEKILNPRLVSINSTSRKGMSVELPQKPPPPPSLLDRFKALLNQREDEFGGGEEVLPPSMDEIVQLYEVVLGELTFNSKPIITDLTIIAGEQREHGEGIANAICTRILEAPVEQKLPSLYLLDSIVKNIGRDYGRYFSSRLPEVFCLAYRQAHPSLHPSMRHLFGTWSSVFPPPVLRKIDMQLQLSSAANQSSVGASEPSQPTRGIHVNPKYLRRLEPSAAENNLRGINSSARVYGQNSLGGYNDFEDQLESPSSLSSTPDGFTRRSNDGANPSNQAFNYGMGRATSRDDEHMEWRRKENLGQGNDHERPRALIDAYGVDTSKHVTINKPIRDMNGMHSKMVTPWQNTEEEEFDWEDMSPTLDRSRAGEFLRSSVPALGSVRARPRVGNTSDFHLDSDIKNGVSHQLRENWSLSQNYPHTSNRVDTRAGKDLKVLASSVGLVSSNSEFGAPPFDSIQDVNSRFGRALPDGTWPHLSARGPNSLPVPSAHLHHLANPGNAMSNRLQGKPLYRPENQVSQSHLNDMTQQNQMLVNYLPSSSAMAPRPMQSLLTHVSHGYPPHGSTIRPSLSIQGGEAMHPLSSGVLSQIGASNQPPGGAFSGLIGSLMAQGLISLNNQPAGQGPLGLEFDADMLKIRNESAISALYGDLPRQCTTCGLRFKCQEEHSKHMDWHVTKNRMSKNHKQNPSRKWFVSASMWLSGAEALGAEAVPGFLPTEPTTEKKDDEDMAVPADEDQTSCALCGEPFEDFYSDETEEWMYKGAVYMNAPEESTTDMDKSQLGPIVHAKCRPESNGGDMEEGSQRKKMRS

binding [3]: binds
B3: PCFS4 with a MYC tag, expressed in Arabidopsis protoplasts (protein, UniProt Q0WPF2 1-808)
chain: MDSEKILNPRLVSINSTSRKGMSVELPQKPPPPPSLLDRFKALLNQREDEFGGGEEVLPPSMDEIVQLYEVVLGELTFNSKPIITDLTIIAGEQREHGEGIANAICTRILEAPVEQKLPSLYLLDSIVKNIGRDYGRYFSSRLPEVFCLAYRQAHPSLHPSMRHLFGTWSSVFPPPVLRKIDMQLQLSSAANQSSVGASEPSQPTRGIHVNPKYLRRLEPSAAENNLRGINSSARVYGQNSLGGYNDFEDQLESPSSLSSTPDGFTRRSNDGANPSNQAFNYGMGRATSRDDEHMEWRRKENLGQGNDHERPRALIDAYGVDTSKHVTINKPIRDMNGMHSKMVTPWQNTEEEEFDWEDMSPTLDRSRAGEFLRSSVPALGSVRARPRVGNTSDFHLDSDIKNGVSHQLRENWSLSQNYPHTSNRVDTRAGKDLKVLASSVGLVSSNSEFGAPPFDSIQDVNSRFGRALPDGTWPHLSARGPNSLPVPSAHLHHLANPGNAMSNRLQGKPLYRPENQVSQSHLNDMTQQNQMLVNYLPSSSAMAPRPMQSLLTHVSHGYPPHGSTIRPSLSIQGGEAMHPLSSGVLSQIGASNQPPGGAFSGLIGSLMAQGLISLNNQPAGQGPLGLEFDADMLKIRNESAISALYGDLPRQCTTCGLRFKCQEEHSKHMDWHVTKNRMSKNHKQNPSRKWFVSASMWLSGAEALGAEAVPGFLPTEPTTEKKDDEDMAVPADEDQTSCALCGEPFEDFYSDETEEWMYKGAVYMNAPEESTTDMDKSQLGPIVHAKCRPESNGGDMEEGSQRKKMRS
